In the supplement of paper PMC11006884:
The entries are a selection whose mix differs from that of the whole data set.

The chains behind the UniProt entries cited, without tags or fusion partners. Where a name states a change or a piece, a line headed by the entry shows the natural chain unless it says otherwise.
UniProt Q8N1G2: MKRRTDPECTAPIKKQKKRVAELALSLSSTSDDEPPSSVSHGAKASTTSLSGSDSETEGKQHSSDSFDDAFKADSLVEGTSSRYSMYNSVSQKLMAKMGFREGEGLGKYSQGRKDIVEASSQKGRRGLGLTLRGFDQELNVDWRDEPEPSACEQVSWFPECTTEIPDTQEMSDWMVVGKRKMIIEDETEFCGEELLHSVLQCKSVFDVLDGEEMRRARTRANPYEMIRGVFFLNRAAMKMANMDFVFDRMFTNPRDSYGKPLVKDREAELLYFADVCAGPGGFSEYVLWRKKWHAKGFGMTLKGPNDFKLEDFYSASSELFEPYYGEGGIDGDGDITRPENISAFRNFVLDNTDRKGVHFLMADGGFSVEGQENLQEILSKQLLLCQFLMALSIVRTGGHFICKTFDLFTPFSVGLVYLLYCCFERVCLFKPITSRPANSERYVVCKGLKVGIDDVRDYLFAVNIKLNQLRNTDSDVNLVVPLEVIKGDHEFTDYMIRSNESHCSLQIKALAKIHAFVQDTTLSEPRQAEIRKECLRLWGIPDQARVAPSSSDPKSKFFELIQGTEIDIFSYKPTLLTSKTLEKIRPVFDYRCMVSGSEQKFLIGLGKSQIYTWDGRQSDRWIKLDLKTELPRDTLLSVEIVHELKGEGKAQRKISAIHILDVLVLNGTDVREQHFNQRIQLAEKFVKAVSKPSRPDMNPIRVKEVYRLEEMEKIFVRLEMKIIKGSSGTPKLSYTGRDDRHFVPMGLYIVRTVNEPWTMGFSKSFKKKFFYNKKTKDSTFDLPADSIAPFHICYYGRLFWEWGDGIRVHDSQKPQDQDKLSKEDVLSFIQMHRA
UniProt Q8NDT2: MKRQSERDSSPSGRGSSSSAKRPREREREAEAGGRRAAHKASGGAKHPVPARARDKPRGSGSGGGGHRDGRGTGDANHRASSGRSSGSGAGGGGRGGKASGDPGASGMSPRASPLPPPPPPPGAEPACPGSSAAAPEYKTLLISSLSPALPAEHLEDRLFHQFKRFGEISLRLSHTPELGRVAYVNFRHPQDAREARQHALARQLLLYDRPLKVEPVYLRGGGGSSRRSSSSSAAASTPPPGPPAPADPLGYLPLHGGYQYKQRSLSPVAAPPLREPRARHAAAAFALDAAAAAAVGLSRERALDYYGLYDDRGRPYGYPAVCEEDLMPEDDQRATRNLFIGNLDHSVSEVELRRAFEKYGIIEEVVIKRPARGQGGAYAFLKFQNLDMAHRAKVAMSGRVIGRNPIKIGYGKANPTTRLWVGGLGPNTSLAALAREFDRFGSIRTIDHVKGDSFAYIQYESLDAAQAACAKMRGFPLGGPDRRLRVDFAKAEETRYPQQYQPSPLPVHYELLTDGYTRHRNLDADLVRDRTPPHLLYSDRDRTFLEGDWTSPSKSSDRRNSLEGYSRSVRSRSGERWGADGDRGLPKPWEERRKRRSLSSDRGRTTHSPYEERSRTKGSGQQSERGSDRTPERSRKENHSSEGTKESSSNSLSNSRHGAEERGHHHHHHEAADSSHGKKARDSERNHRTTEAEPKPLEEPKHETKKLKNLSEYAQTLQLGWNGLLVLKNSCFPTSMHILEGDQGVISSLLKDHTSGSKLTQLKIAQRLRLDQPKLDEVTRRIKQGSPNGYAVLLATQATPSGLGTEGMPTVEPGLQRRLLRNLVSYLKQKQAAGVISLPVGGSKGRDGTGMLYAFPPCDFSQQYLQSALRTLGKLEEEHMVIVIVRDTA
UniProt Q8WVT3: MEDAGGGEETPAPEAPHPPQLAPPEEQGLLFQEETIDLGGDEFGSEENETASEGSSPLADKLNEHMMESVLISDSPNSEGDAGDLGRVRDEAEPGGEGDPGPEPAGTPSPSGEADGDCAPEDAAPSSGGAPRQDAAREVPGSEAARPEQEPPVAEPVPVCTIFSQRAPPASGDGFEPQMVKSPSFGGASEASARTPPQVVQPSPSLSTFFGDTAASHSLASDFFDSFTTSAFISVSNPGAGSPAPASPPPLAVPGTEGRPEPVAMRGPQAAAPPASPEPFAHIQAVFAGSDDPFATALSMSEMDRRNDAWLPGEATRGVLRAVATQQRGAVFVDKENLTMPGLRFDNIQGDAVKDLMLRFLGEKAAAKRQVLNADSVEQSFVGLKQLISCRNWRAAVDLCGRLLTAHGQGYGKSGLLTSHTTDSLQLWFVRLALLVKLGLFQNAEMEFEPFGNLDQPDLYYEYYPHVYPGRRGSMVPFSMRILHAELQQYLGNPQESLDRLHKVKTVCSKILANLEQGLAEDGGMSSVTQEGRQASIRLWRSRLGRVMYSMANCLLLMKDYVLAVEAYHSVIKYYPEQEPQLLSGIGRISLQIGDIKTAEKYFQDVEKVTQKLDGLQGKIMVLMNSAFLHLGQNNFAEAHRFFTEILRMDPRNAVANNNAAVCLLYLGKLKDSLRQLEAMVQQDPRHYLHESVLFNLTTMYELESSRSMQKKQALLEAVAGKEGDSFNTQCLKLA
UniProt Q8NHU6: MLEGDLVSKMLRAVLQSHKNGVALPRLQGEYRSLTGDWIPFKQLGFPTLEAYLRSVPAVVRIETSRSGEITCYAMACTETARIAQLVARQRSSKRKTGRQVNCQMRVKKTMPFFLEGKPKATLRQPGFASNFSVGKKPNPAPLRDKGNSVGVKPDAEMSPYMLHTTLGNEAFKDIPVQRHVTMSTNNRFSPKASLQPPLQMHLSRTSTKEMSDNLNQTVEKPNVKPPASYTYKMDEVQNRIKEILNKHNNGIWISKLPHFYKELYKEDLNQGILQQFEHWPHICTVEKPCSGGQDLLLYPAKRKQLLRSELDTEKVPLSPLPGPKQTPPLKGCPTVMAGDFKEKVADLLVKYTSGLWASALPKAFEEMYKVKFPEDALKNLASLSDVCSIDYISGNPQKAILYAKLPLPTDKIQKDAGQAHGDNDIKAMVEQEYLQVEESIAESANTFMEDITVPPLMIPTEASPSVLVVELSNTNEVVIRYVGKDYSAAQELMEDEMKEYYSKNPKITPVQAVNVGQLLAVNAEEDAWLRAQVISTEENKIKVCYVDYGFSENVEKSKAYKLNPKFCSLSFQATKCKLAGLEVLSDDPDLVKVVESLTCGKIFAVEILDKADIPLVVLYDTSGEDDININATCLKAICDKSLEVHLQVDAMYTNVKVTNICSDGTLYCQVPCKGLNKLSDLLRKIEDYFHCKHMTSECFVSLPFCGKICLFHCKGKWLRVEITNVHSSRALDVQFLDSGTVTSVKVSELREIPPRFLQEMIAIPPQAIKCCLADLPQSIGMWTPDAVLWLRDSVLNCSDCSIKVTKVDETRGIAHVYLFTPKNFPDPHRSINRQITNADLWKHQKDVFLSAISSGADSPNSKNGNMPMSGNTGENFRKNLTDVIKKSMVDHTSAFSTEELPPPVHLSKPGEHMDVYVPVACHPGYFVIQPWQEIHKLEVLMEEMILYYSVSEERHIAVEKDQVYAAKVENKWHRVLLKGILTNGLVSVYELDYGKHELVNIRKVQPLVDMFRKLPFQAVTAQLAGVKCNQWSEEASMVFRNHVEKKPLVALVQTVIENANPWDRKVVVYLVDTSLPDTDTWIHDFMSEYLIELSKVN
UniProt Q8WUM0: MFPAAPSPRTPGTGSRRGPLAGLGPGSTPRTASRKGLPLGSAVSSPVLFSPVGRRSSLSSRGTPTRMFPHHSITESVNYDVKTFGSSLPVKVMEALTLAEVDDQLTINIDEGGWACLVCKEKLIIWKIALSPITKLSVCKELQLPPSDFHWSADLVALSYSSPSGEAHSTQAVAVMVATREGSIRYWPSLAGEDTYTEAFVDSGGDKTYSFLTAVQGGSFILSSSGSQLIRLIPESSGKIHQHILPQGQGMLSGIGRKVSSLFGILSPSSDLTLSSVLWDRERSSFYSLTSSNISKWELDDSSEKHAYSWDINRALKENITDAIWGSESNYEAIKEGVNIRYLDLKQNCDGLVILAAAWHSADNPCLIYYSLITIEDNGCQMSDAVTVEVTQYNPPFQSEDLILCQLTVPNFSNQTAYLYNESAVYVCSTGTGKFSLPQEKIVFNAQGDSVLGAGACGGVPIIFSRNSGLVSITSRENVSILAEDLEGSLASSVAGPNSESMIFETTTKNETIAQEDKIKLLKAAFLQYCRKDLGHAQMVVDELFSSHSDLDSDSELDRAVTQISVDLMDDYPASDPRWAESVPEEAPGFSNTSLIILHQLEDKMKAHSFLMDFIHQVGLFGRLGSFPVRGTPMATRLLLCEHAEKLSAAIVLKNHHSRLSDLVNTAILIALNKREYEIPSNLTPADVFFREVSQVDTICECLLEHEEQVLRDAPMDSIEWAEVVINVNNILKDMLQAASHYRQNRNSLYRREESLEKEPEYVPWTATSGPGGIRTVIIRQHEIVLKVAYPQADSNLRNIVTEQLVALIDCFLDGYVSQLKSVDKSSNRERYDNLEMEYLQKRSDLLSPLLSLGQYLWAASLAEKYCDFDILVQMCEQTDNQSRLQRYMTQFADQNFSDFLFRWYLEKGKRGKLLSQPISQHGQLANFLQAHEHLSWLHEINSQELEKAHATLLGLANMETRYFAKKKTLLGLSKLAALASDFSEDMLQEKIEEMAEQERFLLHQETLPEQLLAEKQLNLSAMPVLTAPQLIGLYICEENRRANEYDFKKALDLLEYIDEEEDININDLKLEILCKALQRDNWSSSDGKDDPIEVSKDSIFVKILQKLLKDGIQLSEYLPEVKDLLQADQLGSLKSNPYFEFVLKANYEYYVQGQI
UniProt Q8TEX9: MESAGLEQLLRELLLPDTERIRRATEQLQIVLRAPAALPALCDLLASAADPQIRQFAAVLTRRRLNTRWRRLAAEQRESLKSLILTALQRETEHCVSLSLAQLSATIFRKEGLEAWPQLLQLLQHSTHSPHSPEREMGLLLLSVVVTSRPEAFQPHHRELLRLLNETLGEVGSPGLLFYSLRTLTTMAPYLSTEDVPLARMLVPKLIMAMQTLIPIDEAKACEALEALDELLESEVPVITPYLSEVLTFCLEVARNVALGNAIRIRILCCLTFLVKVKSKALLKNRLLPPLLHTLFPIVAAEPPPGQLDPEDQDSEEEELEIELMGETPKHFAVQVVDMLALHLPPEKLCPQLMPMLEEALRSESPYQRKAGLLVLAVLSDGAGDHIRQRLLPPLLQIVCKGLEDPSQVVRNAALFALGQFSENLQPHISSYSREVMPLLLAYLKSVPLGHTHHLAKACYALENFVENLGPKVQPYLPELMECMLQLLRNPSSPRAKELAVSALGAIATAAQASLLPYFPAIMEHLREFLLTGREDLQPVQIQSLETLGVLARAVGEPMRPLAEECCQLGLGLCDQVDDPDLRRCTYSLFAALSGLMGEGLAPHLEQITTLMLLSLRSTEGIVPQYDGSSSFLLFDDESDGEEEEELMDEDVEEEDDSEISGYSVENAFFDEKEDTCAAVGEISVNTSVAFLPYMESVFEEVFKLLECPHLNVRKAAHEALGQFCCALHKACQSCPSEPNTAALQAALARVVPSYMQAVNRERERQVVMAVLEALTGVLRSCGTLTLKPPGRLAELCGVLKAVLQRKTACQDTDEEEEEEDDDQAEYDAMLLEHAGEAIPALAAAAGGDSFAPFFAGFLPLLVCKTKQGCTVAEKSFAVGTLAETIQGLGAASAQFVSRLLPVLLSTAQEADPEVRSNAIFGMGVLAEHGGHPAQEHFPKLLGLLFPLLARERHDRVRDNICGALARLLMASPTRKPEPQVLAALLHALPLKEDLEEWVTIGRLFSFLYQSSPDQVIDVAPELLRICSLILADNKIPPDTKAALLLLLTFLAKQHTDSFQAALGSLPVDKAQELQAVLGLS
UniProt Q8WUA2: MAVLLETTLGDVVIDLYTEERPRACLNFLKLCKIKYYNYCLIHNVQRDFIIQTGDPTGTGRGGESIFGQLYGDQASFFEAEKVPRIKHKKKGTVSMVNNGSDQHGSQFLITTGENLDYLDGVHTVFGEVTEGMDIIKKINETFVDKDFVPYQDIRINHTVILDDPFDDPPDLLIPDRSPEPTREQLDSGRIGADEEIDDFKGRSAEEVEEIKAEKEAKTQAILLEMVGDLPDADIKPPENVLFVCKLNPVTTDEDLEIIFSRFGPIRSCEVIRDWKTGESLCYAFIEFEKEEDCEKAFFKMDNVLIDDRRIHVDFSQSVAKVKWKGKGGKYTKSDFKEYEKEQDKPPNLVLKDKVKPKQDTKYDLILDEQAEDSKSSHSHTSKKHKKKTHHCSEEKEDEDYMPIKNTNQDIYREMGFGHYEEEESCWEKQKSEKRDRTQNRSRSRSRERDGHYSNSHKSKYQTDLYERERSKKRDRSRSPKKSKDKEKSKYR

The targets below were run with COC(=O)C#Cc1ccccc1 [methyl 3-phenylpropiolate] (assay: log2 ratio of iodoacetamide-alkyne labeling of the cysteine site, DMSO over compound (competition); higher = stronger covalent engagement of the cysteine by the compound, active = 1 or more). Conditions: 500 µM; treatment time 1 h; system: HEK293T cell lysate.
Outline: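 HEK293T lysate (2 mg/mL) was incubated with electrophile (500 µM) or vehicle for 1 h at ambient temperature and then with iodoacetamide alkyne for 1 h. Labelled proteins were clicked to sCIP-TMT reagents, pooled, digested, enriched on streptavidin and measured by Orbitrap Eclipse LC-MS/MS with FAIMS, with FragPipe quantification. The per-cysteine log2 competition ratio is mean control-channel reporter intensity over mean compound-channel reporter intensity. Across three replicates with duplicate channels, cysteines quantified in only one replicate were excluded.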

log2 ratio of iodoacetamide-alkyne labeling, inactive:
GDPD1 C107 (UniProt Q8N9F7) 0.0424, UniProt Q8N1G2_C794 0.107, DMXL2 C1833 (UniProt Q8TDJ6) 0.0945, RBM15B C859 (UniProt Q8NDT2) 0.229, GEMIN5 C806 (UniProt Q8TEQ6) 0.414, BICD2 C754 (UniProt Q8TD16) 0.332, UniProt Q8WVT3_C160 0.533, TDRD7 C1029 (UniProt Q8NHU6) 0.426, EHBP1 C672 (UniProt Q8NDI1) 0.618, UniProt Q8WVV9_C103 0.263, UniProt Q8N1I0_C1857 0.45, NUP93 C422 (UniProt Q8N1F7) 0.144, NUP133 C702 (UniProt Q8WUM0) 0.279, IPO4 C350 (UniProt Q8TEX9) 0.564, PPIL4 C426 (UniProt Q8WUA2) 0.487
